Values quoted from earlier work, collected in patent publication US9549912B2, “Methods for treating atrial fibrillation” (Armetheon, Inc., priority 2009, dated 2017).
Like-named read-outs stand apart in the source and are kept apart here. At least one compound was matched to its structure with a doubt left.

Settings: cited from earlier work

[H]/N=C(/N)c1ccc(NCc2nc3cc(C(=O)N(CCC(=O)O)c4ccccn4)ccc3n2C)cc1 [dabigatran]
stroke versus warfarin (110 mg): noninferior to warfarin | stroke versus warfarin (150 mg): superior to warfarin
